This passage reports inhibition results from PubChem BioAssay AID694 (Emory University Molecular Libraries Screening Center, 2007).

Amino acid sequences for entries named in this document (tags omitted).
UniProt P03372, whole entry, looked up: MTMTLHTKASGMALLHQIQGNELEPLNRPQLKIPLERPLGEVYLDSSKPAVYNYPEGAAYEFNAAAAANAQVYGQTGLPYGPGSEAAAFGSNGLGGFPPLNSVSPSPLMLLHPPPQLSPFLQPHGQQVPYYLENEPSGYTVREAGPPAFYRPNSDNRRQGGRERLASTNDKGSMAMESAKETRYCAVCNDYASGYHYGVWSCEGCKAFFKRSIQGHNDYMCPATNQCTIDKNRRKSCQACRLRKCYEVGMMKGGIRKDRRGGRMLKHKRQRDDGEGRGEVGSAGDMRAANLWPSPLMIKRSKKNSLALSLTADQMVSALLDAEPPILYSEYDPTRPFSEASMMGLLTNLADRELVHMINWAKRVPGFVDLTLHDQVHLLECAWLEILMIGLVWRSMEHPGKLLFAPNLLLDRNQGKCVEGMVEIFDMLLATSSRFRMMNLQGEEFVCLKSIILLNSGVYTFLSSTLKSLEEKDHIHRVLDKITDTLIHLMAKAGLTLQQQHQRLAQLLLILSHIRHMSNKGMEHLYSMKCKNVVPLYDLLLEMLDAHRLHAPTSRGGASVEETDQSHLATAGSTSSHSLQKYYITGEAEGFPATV

SMILES strings stand for the structures. Values joined by “and” are separate entries in the source; they are usually repeats but may differ in a detail not shown here. Identical values can stand only once. The list shows a part of the results. Further columns of the screen follow, without active or inactive calls.

This assay deals with Estrogen receptor (Homo sapiens) (UniProt P03372). The experiment in a line: ERα coactivator peptide binding inhibitors, primary screen, biochemical, LOPAC library, TR-FRET (AID 694).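 Note: receptor was agonist-bound with estradiol present during the assay.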 The conditions noted are these: TR-FRET ERalpha-coactivator peptide binding, at 15 µM, stronger effect = higher value. (Time-resolved FRET reads energy transfer from a long-lived donor to a nearby acceptor.)
For orientation: inhibition means the drop in the measured response relative to a control, in per cent. Turning to `CC1=C(C)C(=O)C(CCCCC#CCCCC#CCO)=C(C)C1=O`, the inhibition was -0.77%.

As to `CC(N)(Cc1ccc(O)cc1)C(=O)O` (stereo not drawn), the inhibition was -6.26%.

As to `O=C(O)[C@@H]1C[C@@H](C(=O)O)N1`, the inhibition was -2.41%.

As for `N[C@H](C(=O)O)[C@H](O)C(=O)O`, the inhibition was -0.26%.

Take `CN=C(NC#N)NCCSCc1nc[nH]c1C`: the inhibition is 1.03%.

As for `N=C(N)SCCc1cnc[nH]1`, the inhibition is -3.53%.

As for `CC(=O)NNC(=O)N1Cc2ccccc2Oc2ccc(Cl)cc21`, the inhibition was determined as 4.78%.

As to `CCCCCCN(CCCCCC)C(=O)Cc1c(-c2ccc(F)cc2)[nH]c2ccccc12`, the inhibition is 5.53%.

Turning to `CCN(CC)CCNC(=O)c1ccc(NC(C)=O)cc1`, the inhibition is -4.84%.

In the case of `CCCC[C@@]1(C2CCCC2)Cc2cc(OCC(=O)O)c(Cl)c(Cl)c2C1=O`, the inhibition was 3.63%.

Regarding `CCN(CC)CCCC(C)Nc1ccnc2cc(Cl)ccc12` (stereo not drawn), the inhibition stood at 1.7%.

In the case of `C[C@](N)(Cc1ccc(O)cc1)C(=O)O`, the inhibition is -5.82%.

Regarding `CNCCNS(=O)(=O)c1cccc2cnccc12`, the inhibition is 1.96%.

In the case of `c1ccc2c(c1)CCCC2C1=NCCN1` (stereo not drawn), the inhibition is -2.37%.

Take `CN=c1nc(-c2ccccc2)n(-c2ccccc2)s1`: the inhibition is 6.98%.

Regarding `O=C(O)C1CCNCC1`, the inhibition is -4.19%.

As for `CC1(C)CCC(NC(=O)[C@@H](N)CCC(=O)O)CC1`, the inhibition was 0.14%.

As for `CC1(C)CCC=[N+]1[O-]`, the inhibition is -4.31%.

For `N#C/C(=C\c1ccc(O)c(O)c1)C(=O)Nc1ccccc1`, the inhibition turned out to be 6.56%.

Take `CCCCCCCCCCCCCCCC(=O)NCC(COP(=O)([O-])OCC[N+](C)(C)C)OCC` (stereo not drawn): the inhibition turned out to be 31.9%.

On to `O=C1NC(=O)C(c2ccccc2[N+](=O)[O-])=C1Nc1ccc(O)c(Cl)c1`, for which the inhibition is -0.74%.

With `Cc1ccc(N(CC2=NCCN2)c2cccc(O)c2)cc1`, the inhibition turned out to be 5.88%.

In the case of `O=C(O)CCc1nc(-c2ccccc2)c(-c2ccccc2)o1`, the inhibition stood at 4.11%.

`Clc1ccc2c(c1)C(N1CCNCC1)=Nc1ccccc1O2`: the inhibition is 0.16%.

`NCCCCC(=O)O`: the inhibition was -3.39%.

`OCCN1CCN(CCCN2c3ccccc3Sc3ccc(C(F)(F)F)cc32)CC1`: the inhibition was determined as 9.29%.

As for `CC(C(=O)O)c1ccc(CC2CCCC2=O)cc1` (stereo not drawn), the inhibition amounted to 1.71%.

As for `CCOC(=O)N1CCC(=C2c3ccc(Cl)cc3CCc3cccnc32)CC1`, the inhibition was -1.9%.

In the case of `CCCCN1CCC(n2c(=O)[nH]c3ccccc32)CC1`, the inhibition turned out to be 0.6%.

In the case of `O=C(OCCN1CCOCC1)C1(c2ccccc2)CCCCC1`, the inhibition amounted to 0.17%.

Take `C[C@]12CCC(=O)C=C1CC[C@@H]1[C@@H]2C(=O)C[C@@]2(C)[C@H]1CC[C@]2(O)C(=O)CO`: the inhibition came to 0.25%.

Take `COCCCC/C(=N\OCCN)c1ccc(C(F)(F)F)cc1`: the inhibition was 2.18%.

`CN1CCN(C2=Nc3ccccc3Oc3ccc(Cl)cc32)CC1`: the inhibition is -1.22%.

In the case of `CCN(CC)CCOC(=O)C1(C2CCCCC2)CCCCC1`, the inhibition was -8.91%.

As for `C#CC(N)CCC(=O)O` (stereo not drawn), the inhibition came out at 0.63%.

Turning to `COC(=O)C1=C(C)NC(C)=C([N+](=O)[O-])C1c1ccccc1C(F)(F)F` (stereo not drawn), the inhibition is -2.69%.

For the compound `Cc1cn[nH]c1`, the inhibition was determined as 16%.

Regarding `OC[C@H]1O[C@@H](n2cnc3c(NCCc4ccccc4)ncnc32)C(O)[C@H]1O` (stereo partly drawn), the inhibition worked out at 1.69%.

`C=CC(N)CCC(=O)O` (stereo not drawn): the inhibition is 0.25%.

Turning to `NNCCc1ccccc1`, the inhibition was -6.26%.

As for `NC1(C(=O)O)CCCCC1`, the inhibition was -2.67%.

As for `COc1ccc(-c2ccc(N)[n+](CCCC(=O)O)n2)cc1`, the inhibition is -1.55%.

Turning to `CCn1c(=O)c2[nH]c(-c3ccccc3)nc2n(CC)c1=O`, the inhibition is -1.75%.

Turning to `N#Cc1c(-c2ccccc2)no[n+]1[O-]`, the inhibition is -0.29%.

With `CN1CCC(=C2c3ccccc3C=Cc3ccccc32)CC1`, the inhibition is -3.96%.

On to `CN1CCN(CC/C=C2/c3ccccc3Sc3ccc(S(=O)(=O)N(C)C)cc32)CC1`, for which the inhibition came to 6.1%.

Take `CC(C)(C=O)Cc1cc(C(C)(C)C)c(O)c(C(C)(C)C)c1`: the inhibition was determined as 2.47%.

For `CC(/C=C/c1cccc(Oc2ccc(F)cc2)c1)N(O)C(N)=O` (stereo not drawn), the inhibition is 2.1%.

On to `c1ccc([C@H]2CN3CCSC3=N2)cc1`, for which the inhibition worked out at 3.3%.

For `Cc1ccc([N+](=O)[O-])cc1S(=O)(=O)N(C)C`, the inhibition was -0.41%.

As for `O=[N+]([O-])c1cccc2cn[nH]c12`, the inhibition was -4.86%.

For `COc1ccccc1OCC(O)CN1CCN(CC(=O)Nc2c(C)cccc2C)CC1` (stereo not drawn), the inhibition is -5.46%.

Regarding `Nc1ncnc2c1c(-c1ccc(Oc3ccccc3)cc1)cn2C1CCCC1`, the inhibition was found to be 0.56%.

Turning to `C=CC1(C)CC(=O)C2(O)C(C)(O1)C(OC(C)=O)C(O)C1C(C)(C)CCC(O)C12C` (stereo not drawn), the inhibition worked out at 2.99%.

With `COc1cc2c(cc1C(F)(F)F)N(C(=O)Nc1cc(F)cc(-c3cccnc3)c1)CC2`, the inhibition is 2.11%.

In the case of `CCC(C)N(C)C(=O)c1cc2ccccc2c(-c2ccccc2Cl)n1` (stereo not drawn), the inhibition was -1.26%.

`Nc1nc2ccc(Cl)cc2c2nc(-c3ccco3)nn12`: the inhibition was 1.19%.

On to `CCC(CO)Nc1nc(NCc2ccccc2)c2ncn(C(C)C)c2n1` (stereo not drawn), for which the inhibition worked out at 0.75%.

In the case of `O=C(/C=C/c1ccc(O)c(O)c1)OCCc1ccccc1`, the inhibition was -1.26%.

Regarding `CCn1cc(C(=O)O)c(=O)c2ccc(Cc3ccccc3)nc21`, the inhibition turned out to be 2.86%.

As to `CC[C@H](C)C(=O)O[C@H]1CCC=C2C=C[C@H](C)[C@H](CC[C@@H]3C[C@@H](O)CC(=O)O3)[C@H]21`, the inhibition was -0.41%.

Regarding `CC(=O)[C@]1(O)Cc2c(O)c3c(c(O)c2[C@@H](O[C@H]2C[C@H](N)[C@H](O)[C@H](C)O2)C1)C(=O)c1ccccc1C3=O`, the inhibition was -11.1%.

As to `CN1CCN(CCCN2c3ccccc3Sc3ccc(Cl)cc32)CC1`, the inhibition came out at 9.97%.

`Cc1ccc(Cl)c(Nc2ccccc2C(=O)O)c1Cl`: the inhibition was -6.42%.

For the compound `CCn1nc(C(=O)O)c(=O)c2cc3c(cc21)OCO3`, the inhibition is -6.21%.

Turning to `Cc1cc(C)c(/C=C2\C(=O)Nc3ccccc32)[nH]1`, the inhibition was -3.95%.

On to `CCCC(=O)NCCc1c2n(c3ccc(OC)cc13)CCCc1ccccc1-2`, for which the inhibition was -0.15%.

As to `CCn1ccnc1CC1COc2ccccc2O1` (stereo not drawn), the inhibition was -0.18%.

For `CCOC(=O)C12CC1/C(=N/O)c1ccccc1O2` (stereo not drawn), the inhibition is -5.97%.

With `N[C@H](C(=O)O)c1cc(O)cc(O)c1`, the inhibition stood at 3.16%.

For `Cc1cccc(C#Cc2ccccc2)n1`, the inhibition was -5.26%.

For `CC(C)(C)[C@]1(O)CCN2C[C@H]3c4ccccc4CCc4cccc(c43)[C@@H]2C1`, the inhibition is 1.27% and 2.06%.

With `Nc1nc2[nH]c(=O)cnc2c(=O)[nH]1`, the inhibition is -1.79%.

With `Nc1ccc(S(=O)(=O)Nc2ccnn2-c2ccccc2)cc1`, the inhibition amounted to 6.12%.

For `O=C(O)C1=CCCNC1`, the inhibition is -7.61%.

Take `NCCNC(=O)c1ncsc1-c1cccc(F)c1`: the inhibition was -0.21%.

Turning to `COc1ccccc1N1CCN(CCCCNS(=O)(=O)c2cccc3c(N(C)C)cccc23)CC1`, the inhibition is -1.2%.

As to `NC(=O)N1c2ccccc2C=Cc2ccccc21`, the inhibition is -2.49%.

Take `N=C1Sc2ccccc2C2=NCCCN12`: the inhibition came to 9.23%.

In the case of `CNC(=O)c1cc2c(cn1)[nH]c1ccccc12`, the inhibition is -5.81%.

With `COc1ccc(NC(=O)/C=C/c2ccc(Cl)cc2)cc1`, the inhibition worked out at 5.78%.

With `CCC(=O)N1CCN(C(=O)c2ccccc2)CC1`, the inhibition is 1.98%.

Regarding `CC(=O)c1ccc(S(=O)(=O)NC(=O)NC2CCCCC2)cc1`, the inhibition was -0.49%.

For the compound `CCCNC(C)C(=O)Nc1ccccc1C` (stereo not drawn), the inhibition is 4.81%.

As for `CNc1ncnc2c1ncn2[C@H]1C[C@H](OP(=O)(O)O)[C@@H](COP(=O)(O)O)O1`, the inhibition was determined as 0.31%.

Consider `O=C(N[C@@H](Cc1ccccc1)C(=O)CCl)OCc1ccccc1`, for which the inhibition was 8.56%.

With `CC(COc1ccc(/C=C/c2ccccc2)cc1)[N+](C)(C)C` (stereo not drawn), the inhibition amounted to 7.87%.

As to `c1ccc(C2CN3CCSC3=N2)cc1` (stereo not drawn), the inhibition is 3.61%.

Turning to `CCNC(=O)N1CCN(CCCC(c2ccc(F)cc2)c2ccc(F)cc2)CC1`, the inhibition was -1.44%.

For `Fc1ccc(C(OCCCc2cnc[nH]2)c2ccc(F)cc2)cc1`, the inhibition was found to be 0.61%.

Consider `O=C1CCC(c2ccc(-n3ccnc3)cc2)=NN1`, for which the inhibition was found to be 7.46%.

As to `COc1cc2c(cc1OC)-c1cc(=Nc3c(C)cc(C)cc3C)n(C)c(=O)n1CC2`, the inhibition was 6.66%.

As to `NCCCCCCCCCCN`, the inhibition was -0.23%.

Consider `OCCN1CCN(CCCN2c3ccccc3Sc3ccc(Cl)cc32)CC1`, for which the inhibition was determined as 0.17%.

`C#C[C@]1(O)CC[C@H]2[C@@H]3CCC4=Cc5oncc5CC4(C)[C@H]3CCC21C` (stereo partly drawn): the inhibition was -1.88%.

In the case of `CCC1(O)CC2CN(CCc3c([nH]c4ccccc34)[C@@](C(=O)OC)(c3cc4c(cc3OC)N(C)C3[C@]45CCN4CC=C[C@@](CC)([C@@H](OC(C)=O)[C@]3(O)C(=O)OC)[C@H]45)C2)C1` (stereo partly drawn), the inhibition was -0.77%.

Regarding `O=c1oc(Cl)c(Cl)c2ccccc12`, the inhibition was -3.11%.

`COc1nc(C)nc(Cl)c1NC1=NCCN1`: the inhibition is -1.51%.

Regarding `N[C@H](CCC(=O)NCS(=O)(=O)O)C(=O)O`, the inhibition was -0.86%.

With `N#CC(C#N)=C(N)/C(C#N)=C/c1ccc(O)cc1`, the inhibition was found to be 1.29%.

On to `NCCS(=O)(=O)O`, for which the inhibition turned out to be 1.37%.

`CCN(CC)CCNC(=O)c1cc(S(C)(=O)=O)ccc1OC`: the inhibition is -0.06%.

For the compound `C#CCN(C)Cc1ccccc1`, the inhibition is -1.02%.

Regarding `O=c1[nH]c2ccccc2c2ccccc12`, the inhibition is -1.72%.

Regarding `O=C(NCCNCC(O)COc1ccc(O)cc1)N1CCOCC1` (stereo not drawn), the inhibition was -0.58%.

For the compound `COc1ccc2[nH]cc(CCNC(C)=O)c2c1`, the inhibition amounted to 0.03%.

Turning to `O=Nc1c(-c2c(O)[nH]c3ccccc23)[nH]c2ccccc12`, the inhibition is -6.98%.

As to `COc1ccc(C(=O)NCc2cccnc2)cc1C(=O)NCc1cccnc1`, the inhibition is -0.25%.
